# Measurements: PubChem BioAssay AID1487 (National Center for Advancing Translational Sciences (NCATS), 2009)
# Values joined by “and” are separate entries in the source; they are usually repeats but may differ in a detail not shown here. Equal values may be shown once. The list shows a part of the results. These are further read-outs of the screen, such as a control signal, another cell line or another target. No call is given for them. Most of these compounds were active or inconclusive in the main read-out, so they are no random draw. The note in brackets gives the kind of curve behind each potency; many fits are weak.
# Experiment: qHTS Assay for Modulators of Lamin A Splicing
# Settings: HeLa LMNA splicing GFP/RFP minigene ratio, 48 h
# How it was run: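 Read-out is the ratio of GFP to DsRed2 object intensity, acquired by 488 nm laser-scanning cytometry on HeLa lamin A-EGFP minigene reporter cells. Compound incubation 48 hrs at 37 °C in Opti-MEM with 2% FBS; DMSO 0.5% final.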
# [1] = measured here: RFP viability control channel
# [2] = measured here: GFP splicing reporter channel
Structure (SMILES),AC50 [1],AC50 [2]
CCCCOc1ccc(-c2nonc2NC(=O)c2ccco2)cc1,"0.0126 µM [falling, full curve, poor fit]",
Cc1ccc(OCC(=O)NCC2(N3CCN(C)CC3)CCCCC2)cc1C,"6.31 µM [falling, single point]","3.55 µM [falling, single point]"
O=C(CSc1cn(CCNC(=O)c2cccs2)c2ccccc12)NCc1ccccc1,"11.2 µM [rising, partial curve, poor fit]",
Cc1csc(NC(=O)CSc2nsc(SCC(=O)Nc3nc(C)cs3)c2C#N)n1,"20 µM [rising, partial curve, poor fit]",
Cc1ccccc1Cn1c(C)cc(C)c(C#N)c1=O,"0.1 µM [rising, full curve, poor fit]",
COc1ccc(OC)c(/C=N/NC(=O)Cc2nc3ccccc3[nH]2)c1,"20 µM [rising, single point]",
COc1ccc(CCNC(=O)C(=O)NCC2OCCN2S(=O)(=O)c2ccc(Br)cc2)cc1OC (centres undefined),"3.98 µM [rising, full curve]","3.98 µM [rising, full curve, poor fit]"
CC(=O)c1cccc(OCC(=O)c2cc(C)n(-c3cc(C)on3)c2C)c1,"15.8 µM [rising, partial curve]","17.8 µM [rising, single point]"
O=C(COC(=O)c1ccccc1-c1ccccc1[N+](=O)[O-])c1ccccc1,"22.4 µM [rising, partial curve, poor fit]",
Cc1cc(=O)[nH]c(SCCCOc2ccc3c(c2)CCC3)n1,"12.6 µM [rising, single point]",
CCOC(=O)N1CCC(NC(=O)C2CCCN(Cc3nc(-c4cccc(Cl)c4)oc3C)C2)CC1 (centres undefined),"35.5 µM [rising, single point]",
Cc1cccc(N2CCN(C(=O)c3cc(S(=O)(=O)N(C)C)ccc3N3CCCC3)CC2)c1C,,"11.2 µM [falling, single point]"
CC(C)c1cccc(OCCCCN(C)C)c1,"0.0282 µM [falling, full curve, poor fit]",
COc1cccc(-c2nc(NCc3ccco3)c3ccccc3n2)c1O,"11.2 µM [rising, partial curve]",
Cc1ccc(-n2nnnc2SCC#N)cc1,,"1.41 µM [falling, full curve, poor fit]"
Cc1ccc(S(=O)(=O)NC(C(=O)Oc2ccc3c(C(F)(F)F)cc(=O)oc3c2)c2ccccc2)cc1 (centres undefined),"25.1 µM [rising, single point]",
COc1ccc(C(=O)Nc2ccc(SC(F)F)cc2)cc1,"2.82 µM [rising, full curve, poor fit]",
CC(=O)c1ccc(N2CCN(C(=O)C3CCCN(S(=O)(=O)c4cnc[nH]4)C3)CC2)cc1 (centres undefined),"2.82 µM [falling, partial curve]","3.55 µM [falling, single point]"
O=C(Cc1ccc(Cl)cc1)N/N=C/c1cccs1,,"0.158 µM [rising, full curve, poor fit]"

Structure (SMILES),AC50 [1],AC50 [2]
CN1CCN(C(=O)C(=O)Nc2c3c(nn2-c2ccc(F)cc2)CSC3)CC1,"0.0355 µM [rising, full curve, poor fit]","0.02 µM [rising, full curve, poor fit]"
CCn1c(=O)cc(SCC(=O)Nc2ccc3c(c2)OCO3)c2ccccc21,"39.8 µM [rising, partial curve, poor fit]",
COc1cc(/C=C/C(=O)c2ccc(Cl)s2)cc(OC)c1O,"35.5 µM [falling, single point]","22.4 µM [falling, single point]"
COC(=O)c1ccc(NC(=O)c2c(NCc3ccc(C)o3)sc3c2CCCC3)cc1,"15.8 µM [rising, single point]",
Cc1nn(-c2ccccc2)c(C)c1/C=N/NC(=O)c1cc(-c2cccs2)[nH]n1,"0.398 µM [rising, full curve]",
CCOC(=O)N/N=C/c1ccc(OCCSc2ccc(Cl)cc2)c(OC)c1,"10 µM [rising, partial curve]",
CC(C)COP(=O)(OCC(C)C)C(Nc1ccccc1)c1ccc(F)cc1 (centres undefined),"0.1 µM [rising, full curve, poor fit]","3.55 µM [rising, full curve, poor fit]"
COc1ccc(C2N(c3ccc(C)cc3)CCN2c2ccc(C)cc2)cc1O,"28.2 µM [falling, partial curve]","35.5 µM [falling, single point]"
COc1ccc(-c2nn(C)c3sc(C(=O)Nc4cccc(F)c4)cc23)cc1OC,"10 µM [rising, single point]",
O=C(Nc1cc(Oc2ccc(Cl)cc2)cc([N+](=O)[O-])c1)c1ccco1,"20 µM [rising, single point]",
Cc1nnc(SCC(=O)Nc2cc(-c3cc(C)c(C)cc3C)nn2-c2ccccc2)s1,"12.6 µM [rising, partial curve, poor fit]","11.2 µM [rising, partial curve, poor fit]"
Cc1ccc2cc3cc(C(=O)Nc4ccc(F)cc4Cl)oc3nc2c1,"11.2 µM [falling, single point]","12.6 µM [falling, partial curve]"
CC(C)(C)NC(=O)C(c1cccs1)N(CC1CCCO1)C(=O)c1ccc(-c2ccccc2)[nH]1 (centres undefined),"20 µM [rising, partial curve, poor fit]",
Cc1ccccc1NC(=O)c1ccc(CN2CCc3ccccc3C2)cc1,"17.8 µM [rising, partial curve, poor fit]",
Cc1cc(C)n2nc(C(=O)N(C)C(c3ccccc3)c3ccccc3)nc2n1,"1.12 µM [falling, partial curve]",
Cc1ccccc1OCC(=O)OCc1cc(=O)n2ccsc2n1,"4.47 µM [falling, single point]","4.47 µM [falling, partial curve]"
COc1ccccc1/C=C/CN1CCCC(CCC(=O)NCc2ccccc2F)C1 (centres undefined),"12.6 µM [falling, partial curve, poor fit]","12.6 µM [falling, partial curve, poor fit]"
Cc1cccc(NC(=S)Nc2cccc(C(F)(F)F)c2)n1,"5.01 µM [rising, single point]",
CC(C)c1ccc(/C=C(\c2nc3ccccc3[nH]2)S(=O)(=O)c2ccccc2)cc1,,"35.5 µM [falling, single point]"

Structure (SMILES),AC50 [1],AC50 [2]
CC(C)CNC(=O)COc1ccc(Sc2ccc(OCC(=O)NCC(C)C)cc2)cc1,"7.08 µM [rising, full curve]",
CCN(CC)CCN(C(=O)c1ccco1)c1nc2ccc(Cl)cc2s1,,"3.98 µM [falling, full curve]"
Cc1ccc(/C=C/C2=NN(Cc3ccccc3Cl)C(=O)CC2)cc1,"31.6 µM [rising, single point]","31.6 µM [rising, single point]"
CCCc1cc(=O)[nH]c(SCC(=O)Nc2nc(-c3ccccc3)cs2)n1,,"35.5 µM [falling, partial curve, poor fit]"
Nc1ccn([C@H]2CC[C@@H](CO)O2)c(=O)n1,"0.1 µM [rising, full curve, poor fit]",
Fc1cccc(Cl)c1Cn1nnc2c(NCc3ccccn3)ncnc21,"31.6 µM [rising, single point]",
Cc1cccc(NC(=S)NC(NC(=O)OCc2ccccc2)C(Cl)(Cl)Cl)c1 (centres undefined),"31.6 µM [rising, single point]",
Cn1c(SCC(=O)N2c3ccccc3CCc3ccccc32)nnc1-c1ccc(O)cc1,,"0.631 µM [falling, partial curve, poor fit]"
c1cncc(-c2noc(CC3CCCCC3)n2)c1,,"5.62 µM [falling, single point]"
O=C(NN1CCOCC1)c1cc(-c2ccc(Br)cc2)nc2ccccc12,"8.91 µM [rising, partial curve]","5.01 µM [rising, partial curve, poor fit]"
Cc1c(C(=O)NNC(=S)Nc2cccc(Cl)c2)nnn1-c1ccccc1,"15.8 µM [rising, single point]","14.1 µM [rising, single point]"
CCC(CC)C(=O)Nc1cccc(C(=O)NC(C)(C)C)c1,"0.0112 µM [falling, full curve, poor fit]","0.01 µM [falling, full curve, poor fit]"
CCOc1ccc(C(=O)N/N=C(\c2ccccc2)c2ccccn2)cc1,"28.2 µM [rising, single point]",
Cc1cccc(C(=O)NNC2=C(C(=O)C(F)(F)F)CCC2)c1O,"22.4 µM [rising, single point]",
Cc1cc(/C=C(\C#N)C(=O)Nc2ccc(Cl)cc2)c(C)n1-c1ccc(N2CCOCC2)c([N+](=O)[O-])c1,"3.16 µM [rising, full curve]",
COC(=O)/C(=C/c1ccc2c(c1)c1ccccc1n2C)NC(=O)c1ccccc1,"35.5 µM [rising, single point]",
COc1ccc(-c2cn(-c3ccccc3)c3[n+]2CCS3)cc1,"8.91 µM [rising, partial curve]","2.82 µM [falling, single point] and 3.55 µM [rising, partial curve]"
COc1ccccc1-c1nc(-c2ccc(Br)o2)no1,"10 µM [falling, partial curve]","28.2 µM [falling, partial curve, poor fit]"

# Quoted from the listing:
# CC(=O)c1cccc(OCC(=O)c2cc(C)n(-c3cc(C)on3)c2C)c1 – AC50 [2]: 17.8 µM [rising, single point]
# COc1ccc(OC)c(/C=N/NC(=O)Cc2nc3ccccc3[nH]2)c1 – AC50 [1]: 20 µM [rising, single point]
